Measurements: article PMC6350303
Results are given in words; binding and its absence hold for the method and conditions named. Binding seen in cells or lysates may run through a third protein. Some entries that bind do so weakly or less than the wild type. For part of these data: Tags and fused reporters may be left off the sequences shown. One block for each molecule: values may come before it.

Chains of the proteins cited; added tags and fusions are not shown.
UniProt P35222: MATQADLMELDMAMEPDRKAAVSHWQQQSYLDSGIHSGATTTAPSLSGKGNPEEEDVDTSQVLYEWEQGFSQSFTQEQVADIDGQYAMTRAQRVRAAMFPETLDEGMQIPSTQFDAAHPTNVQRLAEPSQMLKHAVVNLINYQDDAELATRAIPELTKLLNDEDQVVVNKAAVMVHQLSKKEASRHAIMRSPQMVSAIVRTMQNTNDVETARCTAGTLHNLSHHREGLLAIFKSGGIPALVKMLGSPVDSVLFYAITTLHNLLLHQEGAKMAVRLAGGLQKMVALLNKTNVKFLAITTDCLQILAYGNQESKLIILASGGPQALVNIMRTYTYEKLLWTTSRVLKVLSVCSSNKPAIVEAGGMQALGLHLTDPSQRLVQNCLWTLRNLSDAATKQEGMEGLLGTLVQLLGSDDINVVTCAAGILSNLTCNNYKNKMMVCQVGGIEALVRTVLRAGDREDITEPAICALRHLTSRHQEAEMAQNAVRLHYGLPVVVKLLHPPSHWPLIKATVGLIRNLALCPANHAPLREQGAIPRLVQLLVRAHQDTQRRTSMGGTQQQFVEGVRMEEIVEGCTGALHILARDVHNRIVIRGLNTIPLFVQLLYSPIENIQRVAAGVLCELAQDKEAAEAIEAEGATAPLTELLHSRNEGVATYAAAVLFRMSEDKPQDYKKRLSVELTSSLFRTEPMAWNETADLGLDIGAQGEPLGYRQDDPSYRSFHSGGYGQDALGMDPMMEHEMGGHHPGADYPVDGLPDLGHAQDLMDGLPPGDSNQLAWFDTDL

Key:
[1] = target: T1, Histone deacetylase enzyme-7 (HDAC7), endogenous (human (endogenous in U87 and U251)) (UniProt Q8WUI4); experiment: co-IP; U87 and U251 cell lysates immunoprecipitated with anti-HDAC7 antibody or control IgG; anti-β-catenin immunoblotting
T1 sequence: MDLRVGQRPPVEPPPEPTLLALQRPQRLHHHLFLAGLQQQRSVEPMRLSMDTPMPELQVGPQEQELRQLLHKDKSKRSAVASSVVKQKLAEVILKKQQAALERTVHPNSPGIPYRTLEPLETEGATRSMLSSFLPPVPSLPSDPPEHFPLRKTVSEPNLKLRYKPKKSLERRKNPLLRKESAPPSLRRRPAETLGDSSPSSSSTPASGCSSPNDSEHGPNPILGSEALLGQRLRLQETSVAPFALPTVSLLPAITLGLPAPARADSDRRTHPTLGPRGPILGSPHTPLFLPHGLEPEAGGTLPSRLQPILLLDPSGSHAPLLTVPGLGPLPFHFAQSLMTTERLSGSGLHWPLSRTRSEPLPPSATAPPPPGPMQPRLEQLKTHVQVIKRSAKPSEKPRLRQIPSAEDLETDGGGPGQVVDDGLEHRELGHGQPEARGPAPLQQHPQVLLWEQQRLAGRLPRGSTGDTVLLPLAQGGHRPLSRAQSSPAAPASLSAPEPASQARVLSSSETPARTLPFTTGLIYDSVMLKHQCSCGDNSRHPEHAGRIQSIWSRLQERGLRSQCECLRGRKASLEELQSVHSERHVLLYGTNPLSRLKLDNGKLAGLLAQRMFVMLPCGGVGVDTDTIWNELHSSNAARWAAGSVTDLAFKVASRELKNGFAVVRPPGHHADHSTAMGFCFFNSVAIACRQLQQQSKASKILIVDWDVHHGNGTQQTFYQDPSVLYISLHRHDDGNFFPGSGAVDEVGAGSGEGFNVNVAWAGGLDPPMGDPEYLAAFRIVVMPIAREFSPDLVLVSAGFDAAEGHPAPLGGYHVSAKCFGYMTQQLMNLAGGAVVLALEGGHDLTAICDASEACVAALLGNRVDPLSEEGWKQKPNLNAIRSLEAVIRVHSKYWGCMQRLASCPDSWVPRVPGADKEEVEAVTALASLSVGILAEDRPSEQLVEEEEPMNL

[2] = target: β-catenin, endogenous (human (endogenous in U87 and U251)) (UniProt P35222); experiment: co-IP; U87 cell lysates immunoprecipitated with anti-ZNF326 or anti-β-catenin antibody and control IgG; immunoblotting
GST-β-catenin = GST-β-catenin (UniProt P35222); experiment: pull-down; glutathione-Sepharose beads coupled with GST or purified GST-β-catenin, incubated with lysates of HEK293 cells transfected with Myc/DDK-pCMV6-ZNF326 overnight at 4 °C (legend: purified Myc-ZNF326, 6 h); immunoblotting; only the target purified

binding [1]: binds
Molecule: β-catenin, endogenous (from UniProt P35222 1-781)

binding [2]: binds
B1: Zinc-finger protein-326 (ZNF326), endogenous (protein, UniProt Q5BKZ1 1-582)
chain: MDFEDDYTHSACRNTYQGFNGMDRDYGPGSYGGMDRDYGHGSYGGQRSMDSYLNQSYGMDNHSGGGGGSRFGPYESYDSRSSLGGRDLYRSGYGFNEPEQSRFGGSYGGRFESSYRNSLDSFGGRNQGGSSWEAPYSRSKLRPGFMEDRGRENYSSYSSFSSPHMKPAPVGSRGRGTPAYPESTFGSRNYDAFGGPSTGRGRGRGHMGDFGSIHRPGIVVDYQNKSTNVTVAAARGIKRKMMQPFNKPSGTFIKKPKLAKPMEKISLSKSPTKTDPKNEEEEKRRIEARREKQRRRREKNSEKYGDGYRMAFTCSFCKFRTFEEKDIELHLESSSHQETLDHIQKQTKFDKVVMEFLHECMVNKFKKTSIRKQQTNNQTEVVKIIEKDVMEGVTVDDHMMKVETVHCSACSVYIPALHSSVQQHLKSPDHIKGKQAYKEQIKRESVLTATSILNNPIVKARYERFVKGENPFEIQDHSQDQQIEGDEEDEEKIDEPIEEEEDEDEEEEAEEVGEVEEVEEVEEVREGGIEGEGNIQGVGEGGEVGVVGEVEGVGEVEEVEELEEETAKEEPADFPVEQPEEN

binding (GST-β-catenin): binds
B2: Myc/DDK-ZNF326 (protein, UniProt Q5BKZ1 1-582)
chain: MDFEDDYTHSACRNTYQGFNGMDRDYGPGSYGGMDRDYGHGSYGGQRSMDSYLNQSYGMDNHSGGGGGSRFGPYESYDSRSSLGGRDLYRSGYGFNEPEQSRFGGSYGGRFESSYRNSLDSFGGRNQGGSSWEAPYSRSKLRPGFMEDRGRENYSSYSSFSSPHMKPAPVGSRGRGTPAYPESTFGSRNYDAFGGPSTGRGRGRGHMGDFGSIHRPGIVVDYQNKSTNVTVAAARGIKRKMMQPFNKPSGTFIKKPKLAKPMEKISLSKSPTKTDPKNEEEEKRRIEARREKQRRRREKNSEKYGDGYRMAFTCSFCKFRTFEEKDIELHLESSSHQETLDHIQKQTKFDKVVMEFLHECMVNKFKKTSIRKQQTNNQTEVVKIIEKDVMEGVTVDDHMMKVETVHCSACSVYIPALHSSVQQHLKSPDHIKGKQAYKEQIKRESVLTATSILNNPIVKARYERFVKGENPFEIQDHSQDQQIEGDEEDEEKIDEPIEEEEDEDEEEEAEEVGEVEEVEEVEEVREGGIEGEGNIQGVGEGGEVGVVGEVEGVGEVEEVEELEEETAKEEPADFPVEQPEEN
